Reference: paper PMC2775740
These are yes or no findings as the source states them, for the method shown. Some results given as binding are weak or reduced against the parent protein; the word gives no strength.

Protein sequences, listed by entry. Tags and fused reporters are not part of them. Residues count along the entry.
UniProt Q6T8E9, residues 1-272: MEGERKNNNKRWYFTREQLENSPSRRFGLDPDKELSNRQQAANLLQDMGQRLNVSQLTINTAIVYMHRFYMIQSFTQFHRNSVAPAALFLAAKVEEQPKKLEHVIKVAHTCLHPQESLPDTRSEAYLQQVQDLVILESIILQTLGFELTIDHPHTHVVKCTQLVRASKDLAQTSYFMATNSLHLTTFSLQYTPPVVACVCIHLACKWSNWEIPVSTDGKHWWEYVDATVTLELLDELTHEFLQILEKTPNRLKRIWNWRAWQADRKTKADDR
UniProt Q82854, residues 1-67: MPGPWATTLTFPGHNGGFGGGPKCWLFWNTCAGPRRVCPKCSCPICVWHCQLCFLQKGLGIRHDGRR

Target: BD-bT1 (bovine) (UniProt Q6T8E9)
Experiment: two-hybrid; mammalian two-hybrid in HeLa cells: Tat fused to the mouse NF-κB AD, partner fused to the GAL4 BD, 500 ng of each plasmid and 250 ng pFR-luc; luciferase read-out

For “jAD fused to NF-κB AD (from UniProt Q82854 1-67) (domain or fragment)”, the binding was “binds”.
